Reference: PMC4605776
Results are given in words; binding and its absence hold for the method and conditions named. Binding seen in cells or lysates may run through a third protein. Some entries that bind do so weakly or less than the wild type.

Amino acid sequences for entries named in this document (tags omitted). A change or cut given only in a name is not applied to a line headed by its entry.
UniProt P70340: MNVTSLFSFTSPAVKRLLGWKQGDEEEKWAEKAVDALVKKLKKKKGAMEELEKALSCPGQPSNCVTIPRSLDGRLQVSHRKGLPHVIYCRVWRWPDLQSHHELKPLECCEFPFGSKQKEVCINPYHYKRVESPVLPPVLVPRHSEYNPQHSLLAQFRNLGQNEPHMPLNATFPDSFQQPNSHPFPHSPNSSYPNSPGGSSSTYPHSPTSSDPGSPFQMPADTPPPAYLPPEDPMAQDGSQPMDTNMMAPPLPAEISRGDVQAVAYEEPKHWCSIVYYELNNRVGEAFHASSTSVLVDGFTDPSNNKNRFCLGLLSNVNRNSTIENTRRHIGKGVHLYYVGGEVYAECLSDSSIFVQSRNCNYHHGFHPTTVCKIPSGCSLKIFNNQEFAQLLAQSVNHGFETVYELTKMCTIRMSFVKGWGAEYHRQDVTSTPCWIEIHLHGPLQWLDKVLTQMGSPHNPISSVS
UniProt E9Q616: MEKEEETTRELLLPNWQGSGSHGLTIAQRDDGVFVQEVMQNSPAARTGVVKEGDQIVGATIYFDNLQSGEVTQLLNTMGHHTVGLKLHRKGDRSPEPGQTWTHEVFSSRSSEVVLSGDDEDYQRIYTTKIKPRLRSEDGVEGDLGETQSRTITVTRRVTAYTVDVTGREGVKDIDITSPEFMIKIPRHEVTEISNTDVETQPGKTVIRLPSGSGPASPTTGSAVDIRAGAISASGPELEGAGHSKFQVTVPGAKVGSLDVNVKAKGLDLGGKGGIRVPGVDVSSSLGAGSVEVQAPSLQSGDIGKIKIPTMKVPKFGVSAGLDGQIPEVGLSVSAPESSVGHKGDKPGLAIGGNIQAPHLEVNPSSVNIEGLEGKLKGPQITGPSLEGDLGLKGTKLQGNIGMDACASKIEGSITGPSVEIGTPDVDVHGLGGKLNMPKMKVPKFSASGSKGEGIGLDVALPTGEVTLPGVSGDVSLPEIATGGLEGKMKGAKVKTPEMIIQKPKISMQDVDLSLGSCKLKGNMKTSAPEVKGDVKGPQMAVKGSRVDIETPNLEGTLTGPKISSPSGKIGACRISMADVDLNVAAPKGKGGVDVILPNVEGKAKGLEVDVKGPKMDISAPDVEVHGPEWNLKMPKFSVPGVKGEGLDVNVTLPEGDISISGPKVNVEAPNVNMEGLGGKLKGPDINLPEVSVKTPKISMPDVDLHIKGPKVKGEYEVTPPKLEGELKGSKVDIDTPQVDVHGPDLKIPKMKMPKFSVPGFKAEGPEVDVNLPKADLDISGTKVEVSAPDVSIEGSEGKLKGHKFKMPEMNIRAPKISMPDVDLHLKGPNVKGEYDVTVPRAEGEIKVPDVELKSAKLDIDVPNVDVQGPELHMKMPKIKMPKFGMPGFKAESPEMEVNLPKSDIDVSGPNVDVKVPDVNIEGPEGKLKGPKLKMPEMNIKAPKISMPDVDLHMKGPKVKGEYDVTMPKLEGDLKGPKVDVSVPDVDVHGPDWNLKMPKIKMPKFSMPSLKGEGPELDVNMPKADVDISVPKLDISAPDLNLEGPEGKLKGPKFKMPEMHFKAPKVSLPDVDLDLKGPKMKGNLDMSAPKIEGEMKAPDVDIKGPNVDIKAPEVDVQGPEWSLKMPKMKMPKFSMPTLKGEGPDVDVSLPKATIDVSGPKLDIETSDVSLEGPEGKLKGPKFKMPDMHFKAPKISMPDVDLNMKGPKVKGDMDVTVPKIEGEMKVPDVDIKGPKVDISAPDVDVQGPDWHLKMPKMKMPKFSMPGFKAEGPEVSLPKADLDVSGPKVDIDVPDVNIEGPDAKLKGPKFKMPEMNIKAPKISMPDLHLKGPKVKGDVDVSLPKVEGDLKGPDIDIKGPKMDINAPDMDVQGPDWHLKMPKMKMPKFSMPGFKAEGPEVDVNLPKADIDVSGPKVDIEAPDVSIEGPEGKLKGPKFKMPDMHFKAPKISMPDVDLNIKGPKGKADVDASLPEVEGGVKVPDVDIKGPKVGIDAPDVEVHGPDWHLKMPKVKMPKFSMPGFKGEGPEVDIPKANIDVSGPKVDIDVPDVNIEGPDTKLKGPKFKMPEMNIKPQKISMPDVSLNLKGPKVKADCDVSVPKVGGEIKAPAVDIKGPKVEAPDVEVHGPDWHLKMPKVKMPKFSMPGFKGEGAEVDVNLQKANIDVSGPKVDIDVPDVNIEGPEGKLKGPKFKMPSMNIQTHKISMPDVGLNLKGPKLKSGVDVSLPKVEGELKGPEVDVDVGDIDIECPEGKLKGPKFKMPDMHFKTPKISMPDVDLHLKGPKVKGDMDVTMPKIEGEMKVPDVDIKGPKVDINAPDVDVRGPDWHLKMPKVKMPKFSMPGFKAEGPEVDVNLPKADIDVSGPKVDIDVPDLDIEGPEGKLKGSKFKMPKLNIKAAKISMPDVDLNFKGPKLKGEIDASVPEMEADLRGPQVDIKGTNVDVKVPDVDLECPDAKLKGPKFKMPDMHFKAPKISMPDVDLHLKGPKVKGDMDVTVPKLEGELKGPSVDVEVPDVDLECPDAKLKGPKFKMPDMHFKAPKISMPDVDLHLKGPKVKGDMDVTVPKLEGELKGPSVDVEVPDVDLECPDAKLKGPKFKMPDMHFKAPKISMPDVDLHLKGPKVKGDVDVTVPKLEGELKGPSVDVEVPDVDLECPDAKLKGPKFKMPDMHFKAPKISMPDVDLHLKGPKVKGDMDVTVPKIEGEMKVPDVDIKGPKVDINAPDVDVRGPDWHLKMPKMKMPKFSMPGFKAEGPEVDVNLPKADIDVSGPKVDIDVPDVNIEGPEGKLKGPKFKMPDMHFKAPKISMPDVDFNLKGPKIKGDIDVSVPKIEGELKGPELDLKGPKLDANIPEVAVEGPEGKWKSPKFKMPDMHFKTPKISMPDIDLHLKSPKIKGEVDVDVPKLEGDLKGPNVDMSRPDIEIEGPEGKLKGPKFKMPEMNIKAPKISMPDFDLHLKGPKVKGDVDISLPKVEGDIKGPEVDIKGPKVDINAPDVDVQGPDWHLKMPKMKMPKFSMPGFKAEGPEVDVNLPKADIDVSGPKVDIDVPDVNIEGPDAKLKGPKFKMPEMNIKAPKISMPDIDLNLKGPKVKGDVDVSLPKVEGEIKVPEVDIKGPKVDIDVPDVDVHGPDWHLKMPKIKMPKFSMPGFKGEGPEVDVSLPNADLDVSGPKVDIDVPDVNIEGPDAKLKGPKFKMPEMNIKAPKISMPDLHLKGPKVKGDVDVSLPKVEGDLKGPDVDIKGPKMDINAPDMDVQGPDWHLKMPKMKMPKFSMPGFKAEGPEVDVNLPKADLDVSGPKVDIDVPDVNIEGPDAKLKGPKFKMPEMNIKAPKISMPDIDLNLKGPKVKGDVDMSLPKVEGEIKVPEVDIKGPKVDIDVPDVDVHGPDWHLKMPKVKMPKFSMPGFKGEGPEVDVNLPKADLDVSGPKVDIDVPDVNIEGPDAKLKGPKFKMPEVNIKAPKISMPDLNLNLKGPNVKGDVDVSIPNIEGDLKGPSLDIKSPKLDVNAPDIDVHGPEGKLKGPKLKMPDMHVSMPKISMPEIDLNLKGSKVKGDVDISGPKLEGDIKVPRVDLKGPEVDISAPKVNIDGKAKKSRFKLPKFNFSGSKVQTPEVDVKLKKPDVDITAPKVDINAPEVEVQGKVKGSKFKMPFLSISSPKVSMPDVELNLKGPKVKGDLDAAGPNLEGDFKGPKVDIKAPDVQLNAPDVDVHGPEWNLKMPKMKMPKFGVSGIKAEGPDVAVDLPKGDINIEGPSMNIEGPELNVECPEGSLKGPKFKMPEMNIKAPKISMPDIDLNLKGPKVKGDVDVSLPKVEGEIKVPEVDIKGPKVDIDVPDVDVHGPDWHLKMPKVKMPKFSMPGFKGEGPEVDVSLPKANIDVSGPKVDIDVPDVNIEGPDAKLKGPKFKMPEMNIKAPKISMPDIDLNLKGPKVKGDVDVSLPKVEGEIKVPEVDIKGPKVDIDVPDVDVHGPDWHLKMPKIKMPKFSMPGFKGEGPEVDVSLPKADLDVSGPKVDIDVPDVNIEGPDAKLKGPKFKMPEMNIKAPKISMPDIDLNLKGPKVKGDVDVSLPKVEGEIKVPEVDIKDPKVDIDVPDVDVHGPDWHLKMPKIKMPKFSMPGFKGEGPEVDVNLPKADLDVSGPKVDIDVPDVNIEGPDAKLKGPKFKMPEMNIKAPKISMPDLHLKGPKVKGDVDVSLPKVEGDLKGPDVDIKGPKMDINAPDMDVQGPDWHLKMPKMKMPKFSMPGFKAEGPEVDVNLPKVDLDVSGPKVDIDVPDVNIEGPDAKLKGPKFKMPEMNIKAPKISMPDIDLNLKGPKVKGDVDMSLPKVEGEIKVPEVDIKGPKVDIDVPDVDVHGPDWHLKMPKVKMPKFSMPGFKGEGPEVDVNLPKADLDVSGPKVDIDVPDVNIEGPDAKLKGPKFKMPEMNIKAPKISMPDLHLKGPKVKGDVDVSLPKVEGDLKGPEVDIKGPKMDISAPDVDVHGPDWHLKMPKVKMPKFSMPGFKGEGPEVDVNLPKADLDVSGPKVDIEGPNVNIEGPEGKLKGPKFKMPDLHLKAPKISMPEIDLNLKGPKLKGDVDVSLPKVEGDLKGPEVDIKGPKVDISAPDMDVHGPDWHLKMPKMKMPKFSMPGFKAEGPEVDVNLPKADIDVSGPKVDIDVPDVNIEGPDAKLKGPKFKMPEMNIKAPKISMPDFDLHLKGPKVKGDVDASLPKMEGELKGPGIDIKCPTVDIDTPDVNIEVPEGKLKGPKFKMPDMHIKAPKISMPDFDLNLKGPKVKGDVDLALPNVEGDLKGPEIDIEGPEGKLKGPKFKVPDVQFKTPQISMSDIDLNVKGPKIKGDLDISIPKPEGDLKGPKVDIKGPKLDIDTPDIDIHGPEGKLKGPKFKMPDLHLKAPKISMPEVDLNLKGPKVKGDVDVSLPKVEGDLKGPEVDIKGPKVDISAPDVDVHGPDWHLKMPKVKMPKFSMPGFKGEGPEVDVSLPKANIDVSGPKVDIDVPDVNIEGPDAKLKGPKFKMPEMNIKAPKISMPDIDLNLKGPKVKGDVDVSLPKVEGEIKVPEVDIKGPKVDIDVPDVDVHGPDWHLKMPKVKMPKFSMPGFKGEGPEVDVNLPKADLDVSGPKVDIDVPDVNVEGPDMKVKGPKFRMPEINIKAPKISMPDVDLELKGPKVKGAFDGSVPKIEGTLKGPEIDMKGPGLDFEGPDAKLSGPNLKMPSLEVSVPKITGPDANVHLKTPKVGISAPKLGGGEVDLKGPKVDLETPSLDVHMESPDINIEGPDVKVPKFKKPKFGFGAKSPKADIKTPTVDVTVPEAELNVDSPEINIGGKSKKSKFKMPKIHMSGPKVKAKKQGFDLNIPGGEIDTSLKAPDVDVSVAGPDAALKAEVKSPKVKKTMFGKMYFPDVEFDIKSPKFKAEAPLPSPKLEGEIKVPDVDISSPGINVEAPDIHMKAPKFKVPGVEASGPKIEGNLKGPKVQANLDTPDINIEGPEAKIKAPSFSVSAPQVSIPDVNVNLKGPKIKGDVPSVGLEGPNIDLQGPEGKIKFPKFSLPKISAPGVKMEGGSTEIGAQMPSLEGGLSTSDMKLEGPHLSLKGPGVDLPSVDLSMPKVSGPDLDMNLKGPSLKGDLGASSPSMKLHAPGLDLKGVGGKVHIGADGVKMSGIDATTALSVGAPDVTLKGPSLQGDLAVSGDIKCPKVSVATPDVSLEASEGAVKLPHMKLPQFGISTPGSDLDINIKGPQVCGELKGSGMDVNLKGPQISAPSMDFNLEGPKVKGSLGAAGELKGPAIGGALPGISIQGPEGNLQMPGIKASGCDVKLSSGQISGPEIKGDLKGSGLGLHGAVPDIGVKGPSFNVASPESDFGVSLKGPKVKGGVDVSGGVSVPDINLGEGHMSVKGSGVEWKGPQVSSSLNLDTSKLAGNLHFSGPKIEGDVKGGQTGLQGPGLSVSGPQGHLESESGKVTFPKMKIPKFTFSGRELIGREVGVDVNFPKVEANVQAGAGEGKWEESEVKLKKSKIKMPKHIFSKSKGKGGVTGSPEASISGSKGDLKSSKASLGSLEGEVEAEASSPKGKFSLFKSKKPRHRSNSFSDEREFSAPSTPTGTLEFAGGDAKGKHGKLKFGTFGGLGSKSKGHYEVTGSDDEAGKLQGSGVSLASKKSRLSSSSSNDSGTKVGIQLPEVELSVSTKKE

Key:
SMAD1 = SMAD1 (UniProt P70340); test: proximity ligation; in situ Duolink PLA with AHNAK and SMAD1 probes; BMP4-treated and vehicle-control cells; nuclei stained with DAPI
HA-Smad1 = HA-Smad1 (UniProt P70340); test: co-IP; Flag-Ahnak and HA-Smad1 co-transfected into C3H10T1/2 cells, incubated without or with BMP4 for 60 min; lysates immunoprecipitated with anti-HA antibody at 4°C overnight, protein A/G agarose beads, washed three times with lysis buffer (1% Triton X-100, 20 mM HEPES pH 7.5, 150 mM NaCl, 10% glycerol, 5 mM EDTA); immunoblot

binding (SMAD1) | binding (HA-Smad1) | Substance
binds | – | AHNAK (from UniProt E9Q616 1-5656)
– | binds | Flag-Ahnak (N-terminal, amino-acid residues 1–150) (from UniProt E9Q616 1-150) (domain or fragment)
